Values from PubChem BioAssay AID1053208 (Peter MacCallum Cancer Centre, 2014)

- Assay: 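Synthetic lethal interactions between gene loss and doxorubicin in osteosarcoma cells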 (primary screen)
- Cells: mouse osteosarcoma cells, early-passage culture from an engineered mouse model of fibroblastic bone tumour
- Reagent: siRNA pool against mouse genes, 40 nM
- Time to read-out: about 120 h (48 h before drug, then 72 h with drug)
- Treatment: doxorubicin 100 nM for 72 h, roughly 30-40% inhibitory dose
- Measurement: 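Luminescent ATP signal taken as viability with or without 100 nM doxorubicin for 72 h; mean of two wells set against non-targeting siRNA and turned into robust z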
- Scale: viability z-score with doxorubicin: higher = more viable cells under doxorubicin; viability z-score without drug: higher = more viable cells with knock-down alone
- Rule for the call: 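a pool counts as active when its viability z-score with doxorubicin is -2 or below and its z-score without drug lies between -2 and 2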
The whole screen tested about 17,000 reagents; below is an unselected part. Of all reagents, 788 (4.7%) were called active. 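Calls rest on z-score classes alone; an extra cut-off of viability at most 70% of control was not applied to them.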 Further read-outs or replicates are left out here. No sequences are given here.

After knock-down of Ly6e the results were combined z-score class no change with or without drug; viability z-score with doxorubicin 0.79; viability z-score without drug -0.84; inactive.
After knock-down of Bltp3b, the screen gave combined z-score class high cell count without drug only; viability z-score with doxorubicin 0.67; viability z-score without drug 2.19; inactive.
Wdr76 showed combined z-score class no change with or without drug; viability z-score with doxorubicin 0.67; viability z-score without drug 0.51; inactive.
Bex1 scored combined z-score class low cell count with doxorubicin only; viability z-score with doxorubicin -2.25; viability z-score without drug -0.84; active.
With knock-down of Or7g33, the record shows combined z-score class no change with or without drug; viability z-score with doxorubicin -0.45; viability z-score without drug 1.85; inactive.
With knock-down of A730045E13Rik, the record shows combined z-score class no change with or without drug; viability z-score with doxorubicin -0.45; viability z-score without drug -0.34; inactive.
Fundc1 showed combined z-score class no change with or without drug; viability z-score with doxorubicin 0.45; viability z-score without drug -0.84; inactive.
For U2af2 the deposit lists combined z-score class low cell count with and without drug; viability z-score with doxorubicin -5.17; viability z-score without drug -3.04; inactive.
For Brinp3, the values are combined z-score class no change with or without drug; viability z-score with doxorubicin 1.12; viability z-score without drug 0.17; inactive.
After knock-down of Zfp319, the screen gave combined z-score class no change with or without drug; viability z-score with doxorubicin 0.45; viability z-score without drug 1.35; inactive.
Knock-down of Gfpt1 came out at: combined z-score class no change with or without drug; viability z-score with doxorubicin 0.45; viability z-score without drug 0.17; inactive.
Ndufaf4 showed combined z-score class no change with or without drug; viability z-score with doxorubicin 0.67; viability z-score without drug 0.17; inactive.

An excerpt from above, limited to “viability z-score with doxorubicin”:
Fundc1	0.45
U2af2	-5.17

Next records follow:
Knock-down of Pcgf3 gave: combined z-score class no change with or without drug; viability z-score with doxorubicin -0.67; viability z-score without drug 0.17; inactive.
Cox6c showed combined z-score class no change with or without drug; viability z-score with doxorubicin 0.45; viability z-score without drug 0.17; inactive.
Prrx1 gave combined z-score class no change with or without drug; viability z-score with doxorubicin -0.22; viability z-score without drug -0.51; inactive.
Knock-down of Eef1d resulted in: combined z-score class low cell count without drug only; viability z-score with doxorubicin -0.9; viability z-score without drug -2.02; inactive.
With knock-down of Scg2, the screen gave combined z-score class high cell count with and without drug; viability z-score with doxorubicin 2.02; viability z-score without drug 2.87; inactive.
Depletion of Aurka came out at: combined z-score class no change with or without drug; viability z-score with doxorubicin -0.56; viability z-score without drug -1.18; inactive.
Depletion of Pycr3 came out at: combined z-score class low cell count with doxorubicin only; viability z-score with doxorubicin -2.02; viability z-score without drug 0.17; active.
Nlrp4c showed combined z-score class low cell count with doxorubicin only; viability z-score with doxorubicin -2.02; viability z-score without drug -1.85; active.
Depletion of Hrnr resulted in: combined z-score class no change with or without drug; viability z-score with doxorubicin 0.45; viability z-score without drug 1.85; inactive.
Against Ubxn11, the entry reads combined z-score class no change with or without drug; viability z-score with doxorubicin -0.9; viability z-score without drug 0.17; inactive.
After knock-down of Sdc1, the screen gave combined z-score class no change with or without drug; viability z-score with doxorubicin 0.79; viability z-score without drug 1.18; inactive.
After knock-down of Capn12 the results were combined z-score class no change with or without drug; viability z-score with doxorubicin 0; viability z-score without drug -0.17; inactive.
For Cavin2, the entry reads combined z-score class no change with or without drug; viability z-score with doxorubicin -1.12; viability z-score without drug -0.51; inactive.
Depletion of Fam72a gave: combined z-score class no change with or without drug; viability z-score with doxorubicin -0.45; viability z-score without drug 0.67; inactive.
Uqcrc1 gave combined z-score class no change with or without drug; viability z-score with doxorubicin -0.56; viability z-score without drug -1.18; inactive.
With knock-down of Slfn5, the screen gave combined z-score class no change with or without drug; viability z-score with doxorubicin -1.12; viability z-score without drug -0.17; inactive.
